Results reported in PMC7070008.
These are yes or no findings as the source states them, for the method shown. In cells and extracts the contact can be indirect. Here binding means that the protein was enriched with, or labelled near, the bait; the list need not be complete. Sequences can lack the tags named with a protein.

The chains behind the UniProt entries cited, without tags or fusion partners. Residues count along the entry.
UniProt Q64727: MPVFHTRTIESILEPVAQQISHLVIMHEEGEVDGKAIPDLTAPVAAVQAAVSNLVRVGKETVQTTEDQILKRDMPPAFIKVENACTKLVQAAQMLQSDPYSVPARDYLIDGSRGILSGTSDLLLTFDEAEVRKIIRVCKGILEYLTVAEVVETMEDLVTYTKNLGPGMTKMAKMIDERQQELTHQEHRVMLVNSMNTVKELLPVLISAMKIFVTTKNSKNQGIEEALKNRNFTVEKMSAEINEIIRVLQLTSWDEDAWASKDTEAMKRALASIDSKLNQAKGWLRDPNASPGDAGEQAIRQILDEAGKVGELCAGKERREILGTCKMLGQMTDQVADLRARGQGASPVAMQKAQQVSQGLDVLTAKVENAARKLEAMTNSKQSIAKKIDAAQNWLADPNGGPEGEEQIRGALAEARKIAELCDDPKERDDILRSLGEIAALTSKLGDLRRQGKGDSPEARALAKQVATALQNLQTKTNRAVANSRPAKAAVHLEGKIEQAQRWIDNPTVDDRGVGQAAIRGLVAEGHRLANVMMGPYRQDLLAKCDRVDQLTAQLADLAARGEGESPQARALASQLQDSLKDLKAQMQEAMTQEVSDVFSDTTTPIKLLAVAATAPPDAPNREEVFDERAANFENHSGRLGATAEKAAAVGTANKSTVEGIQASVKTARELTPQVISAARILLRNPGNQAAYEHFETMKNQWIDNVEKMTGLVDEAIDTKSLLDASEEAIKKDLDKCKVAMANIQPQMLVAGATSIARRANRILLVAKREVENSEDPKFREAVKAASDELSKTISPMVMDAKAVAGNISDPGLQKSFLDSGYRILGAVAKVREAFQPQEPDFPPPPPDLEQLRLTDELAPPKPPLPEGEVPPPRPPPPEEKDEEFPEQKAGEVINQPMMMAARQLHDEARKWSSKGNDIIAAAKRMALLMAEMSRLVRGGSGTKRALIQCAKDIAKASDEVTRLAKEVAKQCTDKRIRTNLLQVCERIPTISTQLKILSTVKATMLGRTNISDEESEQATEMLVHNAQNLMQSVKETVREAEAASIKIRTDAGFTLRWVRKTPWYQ
UniProt Q9JHG7: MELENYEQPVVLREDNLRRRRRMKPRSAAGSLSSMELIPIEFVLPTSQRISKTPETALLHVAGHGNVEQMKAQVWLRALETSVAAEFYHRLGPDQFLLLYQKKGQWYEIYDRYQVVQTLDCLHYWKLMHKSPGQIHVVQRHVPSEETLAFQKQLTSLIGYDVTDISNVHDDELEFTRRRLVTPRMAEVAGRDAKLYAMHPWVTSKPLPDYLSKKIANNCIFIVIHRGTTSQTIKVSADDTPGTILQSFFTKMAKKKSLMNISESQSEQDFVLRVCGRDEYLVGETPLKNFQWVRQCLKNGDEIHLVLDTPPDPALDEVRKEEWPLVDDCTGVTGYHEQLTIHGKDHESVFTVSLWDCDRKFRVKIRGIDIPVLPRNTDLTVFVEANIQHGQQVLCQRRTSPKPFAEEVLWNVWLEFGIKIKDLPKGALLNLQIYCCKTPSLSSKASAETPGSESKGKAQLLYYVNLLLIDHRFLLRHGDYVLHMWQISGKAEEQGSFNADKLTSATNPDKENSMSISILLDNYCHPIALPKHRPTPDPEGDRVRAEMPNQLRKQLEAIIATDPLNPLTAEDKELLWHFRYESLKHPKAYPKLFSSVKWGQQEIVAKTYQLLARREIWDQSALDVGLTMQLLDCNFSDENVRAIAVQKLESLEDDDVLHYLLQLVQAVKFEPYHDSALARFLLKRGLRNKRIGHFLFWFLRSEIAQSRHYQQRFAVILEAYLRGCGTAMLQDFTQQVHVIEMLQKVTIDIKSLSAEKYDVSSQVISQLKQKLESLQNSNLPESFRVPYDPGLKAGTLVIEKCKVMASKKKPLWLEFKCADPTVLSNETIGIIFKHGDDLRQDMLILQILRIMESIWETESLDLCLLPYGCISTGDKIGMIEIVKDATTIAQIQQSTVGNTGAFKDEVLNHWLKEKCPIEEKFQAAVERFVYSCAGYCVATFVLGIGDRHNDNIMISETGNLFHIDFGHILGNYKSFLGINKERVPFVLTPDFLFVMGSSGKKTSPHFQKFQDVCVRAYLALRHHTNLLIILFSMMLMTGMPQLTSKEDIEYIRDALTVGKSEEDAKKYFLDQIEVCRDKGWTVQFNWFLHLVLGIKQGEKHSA
UniProt P49817: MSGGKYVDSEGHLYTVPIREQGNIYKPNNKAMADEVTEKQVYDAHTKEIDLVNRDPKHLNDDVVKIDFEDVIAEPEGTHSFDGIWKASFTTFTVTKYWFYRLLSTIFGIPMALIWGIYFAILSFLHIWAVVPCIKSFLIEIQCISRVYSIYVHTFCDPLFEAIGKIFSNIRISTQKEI
UniProt Q07113, residues 36-2483: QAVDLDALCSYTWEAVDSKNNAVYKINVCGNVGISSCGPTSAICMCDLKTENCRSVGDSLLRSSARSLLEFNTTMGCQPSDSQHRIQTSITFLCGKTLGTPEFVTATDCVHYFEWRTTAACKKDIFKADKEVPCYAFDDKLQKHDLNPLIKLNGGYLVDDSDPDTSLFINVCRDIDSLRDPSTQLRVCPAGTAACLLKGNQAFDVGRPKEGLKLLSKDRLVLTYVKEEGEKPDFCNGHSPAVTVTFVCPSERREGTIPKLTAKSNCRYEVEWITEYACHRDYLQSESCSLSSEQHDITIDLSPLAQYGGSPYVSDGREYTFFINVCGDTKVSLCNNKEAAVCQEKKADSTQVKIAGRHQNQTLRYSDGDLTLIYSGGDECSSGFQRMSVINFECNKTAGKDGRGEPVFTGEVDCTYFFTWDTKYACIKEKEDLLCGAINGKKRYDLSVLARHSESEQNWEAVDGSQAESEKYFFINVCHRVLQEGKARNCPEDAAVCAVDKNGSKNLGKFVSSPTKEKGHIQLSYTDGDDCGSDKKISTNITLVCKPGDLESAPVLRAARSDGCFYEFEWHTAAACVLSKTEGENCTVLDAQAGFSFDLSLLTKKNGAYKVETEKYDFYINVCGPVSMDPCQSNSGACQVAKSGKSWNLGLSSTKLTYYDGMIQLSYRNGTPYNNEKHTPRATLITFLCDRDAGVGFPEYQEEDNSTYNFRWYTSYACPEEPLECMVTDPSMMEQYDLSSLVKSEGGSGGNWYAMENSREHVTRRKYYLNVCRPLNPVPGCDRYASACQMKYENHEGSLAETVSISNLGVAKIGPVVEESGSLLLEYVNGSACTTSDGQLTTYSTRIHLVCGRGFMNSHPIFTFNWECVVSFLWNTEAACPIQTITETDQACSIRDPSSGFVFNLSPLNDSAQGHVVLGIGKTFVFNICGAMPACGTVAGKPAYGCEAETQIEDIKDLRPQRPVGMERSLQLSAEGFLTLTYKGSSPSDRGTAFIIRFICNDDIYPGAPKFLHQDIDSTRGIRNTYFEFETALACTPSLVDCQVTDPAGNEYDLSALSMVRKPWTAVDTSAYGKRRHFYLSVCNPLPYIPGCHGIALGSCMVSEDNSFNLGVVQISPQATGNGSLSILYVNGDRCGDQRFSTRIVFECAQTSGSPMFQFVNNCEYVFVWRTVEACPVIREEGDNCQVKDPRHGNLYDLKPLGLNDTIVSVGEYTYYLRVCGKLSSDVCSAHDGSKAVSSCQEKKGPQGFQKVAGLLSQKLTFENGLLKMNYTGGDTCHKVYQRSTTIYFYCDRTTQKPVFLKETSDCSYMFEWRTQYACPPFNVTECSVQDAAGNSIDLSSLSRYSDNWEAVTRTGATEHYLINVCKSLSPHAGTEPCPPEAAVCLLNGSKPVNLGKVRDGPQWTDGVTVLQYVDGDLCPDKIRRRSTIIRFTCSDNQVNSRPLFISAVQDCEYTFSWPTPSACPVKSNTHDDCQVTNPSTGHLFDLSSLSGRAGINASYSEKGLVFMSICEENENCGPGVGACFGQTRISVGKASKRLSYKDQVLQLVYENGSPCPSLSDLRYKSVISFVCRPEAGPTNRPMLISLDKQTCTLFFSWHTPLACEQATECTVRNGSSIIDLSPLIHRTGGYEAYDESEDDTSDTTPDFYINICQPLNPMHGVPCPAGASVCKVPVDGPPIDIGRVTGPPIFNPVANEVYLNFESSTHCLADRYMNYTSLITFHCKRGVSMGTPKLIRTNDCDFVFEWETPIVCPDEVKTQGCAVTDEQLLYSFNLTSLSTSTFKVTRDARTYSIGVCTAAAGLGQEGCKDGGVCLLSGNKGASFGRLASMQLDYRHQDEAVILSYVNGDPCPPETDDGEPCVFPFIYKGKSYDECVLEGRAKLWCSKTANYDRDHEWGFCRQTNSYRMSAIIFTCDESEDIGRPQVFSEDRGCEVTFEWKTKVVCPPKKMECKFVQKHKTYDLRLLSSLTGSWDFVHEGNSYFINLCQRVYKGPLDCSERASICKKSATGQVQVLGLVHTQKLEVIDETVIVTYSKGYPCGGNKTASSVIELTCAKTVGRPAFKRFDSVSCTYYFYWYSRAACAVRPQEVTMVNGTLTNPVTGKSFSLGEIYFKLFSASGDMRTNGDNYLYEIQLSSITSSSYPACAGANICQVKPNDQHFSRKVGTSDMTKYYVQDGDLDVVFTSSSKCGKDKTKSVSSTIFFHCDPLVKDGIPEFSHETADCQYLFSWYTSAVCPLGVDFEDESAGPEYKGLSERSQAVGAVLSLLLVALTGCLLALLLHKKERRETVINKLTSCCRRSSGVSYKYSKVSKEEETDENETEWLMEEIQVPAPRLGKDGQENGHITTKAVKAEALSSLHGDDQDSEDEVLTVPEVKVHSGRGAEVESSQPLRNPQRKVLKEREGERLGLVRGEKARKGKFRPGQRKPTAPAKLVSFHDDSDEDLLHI
UniProt P35569: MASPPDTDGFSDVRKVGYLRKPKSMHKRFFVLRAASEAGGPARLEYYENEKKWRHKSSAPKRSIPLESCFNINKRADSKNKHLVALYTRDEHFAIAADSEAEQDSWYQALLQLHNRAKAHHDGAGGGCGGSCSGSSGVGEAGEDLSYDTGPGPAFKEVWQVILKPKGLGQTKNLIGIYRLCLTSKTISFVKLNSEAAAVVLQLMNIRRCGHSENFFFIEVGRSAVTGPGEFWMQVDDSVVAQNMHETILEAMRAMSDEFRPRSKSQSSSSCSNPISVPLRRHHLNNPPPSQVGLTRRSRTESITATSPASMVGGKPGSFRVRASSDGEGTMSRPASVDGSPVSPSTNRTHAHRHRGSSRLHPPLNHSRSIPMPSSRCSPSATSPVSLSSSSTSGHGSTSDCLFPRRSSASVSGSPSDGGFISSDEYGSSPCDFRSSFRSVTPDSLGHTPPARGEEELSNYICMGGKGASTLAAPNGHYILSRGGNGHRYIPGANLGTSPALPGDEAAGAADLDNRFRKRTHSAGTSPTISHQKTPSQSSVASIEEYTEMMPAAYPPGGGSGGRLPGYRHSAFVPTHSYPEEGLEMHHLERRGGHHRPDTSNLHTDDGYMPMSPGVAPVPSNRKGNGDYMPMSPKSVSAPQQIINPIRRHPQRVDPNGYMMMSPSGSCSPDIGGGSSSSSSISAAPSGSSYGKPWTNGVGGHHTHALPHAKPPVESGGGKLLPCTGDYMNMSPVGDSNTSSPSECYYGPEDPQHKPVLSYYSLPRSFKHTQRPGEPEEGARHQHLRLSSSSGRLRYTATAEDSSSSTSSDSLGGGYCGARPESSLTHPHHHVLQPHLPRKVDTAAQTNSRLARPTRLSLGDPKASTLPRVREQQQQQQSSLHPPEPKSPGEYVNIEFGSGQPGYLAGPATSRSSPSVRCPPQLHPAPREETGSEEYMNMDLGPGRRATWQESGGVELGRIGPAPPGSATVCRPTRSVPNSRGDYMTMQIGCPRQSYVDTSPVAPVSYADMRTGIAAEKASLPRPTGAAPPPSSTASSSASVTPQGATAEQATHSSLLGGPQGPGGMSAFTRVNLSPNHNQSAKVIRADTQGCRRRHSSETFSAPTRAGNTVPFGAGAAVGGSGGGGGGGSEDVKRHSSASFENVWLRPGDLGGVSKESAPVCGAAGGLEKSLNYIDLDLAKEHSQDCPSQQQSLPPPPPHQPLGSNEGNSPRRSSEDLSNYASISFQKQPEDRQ

T1: 6His-plakoglobin (UniProt P14923)
T1 sequence: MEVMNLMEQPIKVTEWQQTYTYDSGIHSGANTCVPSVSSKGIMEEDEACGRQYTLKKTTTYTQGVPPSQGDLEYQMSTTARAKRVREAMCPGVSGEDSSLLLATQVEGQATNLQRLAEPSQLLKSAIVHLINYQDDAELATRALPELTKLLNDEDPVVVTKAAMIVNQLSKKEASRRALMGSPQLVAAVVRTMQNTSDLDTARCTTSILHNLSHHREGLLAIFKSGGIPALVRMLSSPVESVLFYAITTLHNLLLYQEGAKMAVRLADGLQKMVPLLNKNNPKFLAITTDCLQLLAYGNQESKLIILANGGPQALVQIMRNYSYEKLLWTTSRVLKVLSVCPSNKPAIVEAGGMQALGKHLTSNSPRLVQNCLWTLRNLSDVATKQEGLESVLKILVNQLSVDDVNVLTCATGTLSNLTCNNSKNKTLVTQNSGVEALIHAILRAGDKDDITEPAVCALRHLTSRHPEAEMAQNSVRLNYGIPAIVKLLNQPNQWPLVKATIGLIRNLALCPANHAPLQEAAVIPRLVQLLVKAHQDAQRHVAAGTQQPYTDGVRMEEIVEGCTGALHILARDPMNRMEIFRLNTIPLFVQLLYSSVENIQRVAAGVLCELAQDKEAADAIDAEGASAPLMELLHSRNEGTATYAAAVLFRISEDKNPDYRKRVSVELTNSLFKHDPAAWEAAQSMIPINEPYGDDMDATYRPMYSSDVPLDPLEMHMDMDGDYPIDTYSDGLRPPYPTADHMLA

B1: β-sarcoglycan (protein, UniProt P82349 1-320)
chain: MAAAAAAAAATEQQGSNGPVKKSMREKAVERRNVNKEHNSNFKAGYIPIDEDRLHKTGLRGRKGNLAICVIVLLFILAVINLLITLVIWAVIRIGPNGCDSMEFHESGLLRFKQVSDMGVIHPLYKSTVGGRRNENLVITGNNQPIVFQQGTTKLSVEKNKTSITSDIGMQFFDPRTHNILFSTDYETHEFHLPSGVKSLNVQKASTERITSNATSDLNIKVDGRAIVRGNEGVFIMGKTIEFHMGGDVELKAENSIILNGTVMVSPTRLPSSSSGDQSGSGDWVRYKLCMCADGTLFKVQVTGHNMGCQVSDNPCGNTH
B2: γ-sarcoglycan (protein, UniProt P82348 1-291)
chain: MVREQYTTVTEGTHIERPENQHIYKIGIYGWRKRCLYLFVLLLLAILVVNLALTIWILKVMWFSPIGMGHLHVTADGLRLEGESEFLFPLYAKEIRSRVDSSLLLQSTQNVTVSARNSEGEVTGRVKVGAQMVEVQSQHFQINSEDGKPLFSAEEQDVVVGTGRLRVTGPEGALFEHSVETPLVRADPFQDLRLESPTRSLSMDAPRGVHVKANAGKLEALSQMDIILQSSEGVLVLDAETVGLTKLKQGTQGPAGSSNGFYEICACPDGKLYLSMAGEVTTCEEHSHVCL
B3: α-1-syntrophin (protein, UniProt Q61234 1-503)
chain: MASGRRAPRTGLLELRCGAGSGAGGERWQRVLLSLAEDALTVSPADGEPGPEPEPAQLNGAAEPGAAPPQLPEALLLQRRRVTVRKADAGGLGISIKGGRENKMPILISKIFKGLAADQTEALFVGDAILSVNGEDLSSATHDEAVQALKKTGKEVVLEVKYMKEVSPYFKNSAGGTSVGWDSPPASPLQRQPSSPGPQPRNLSEAKHVSLKMAYVSRRCTPTDPEPRYLEICAADGQDAVFLRAKDEASARSWAGAIQAQIGTFIPWVKDELQALLTATGTAGSQDIKQIGWLTEQLPSGGTAPTLALLTEKELLFYCSLPQSREALSRPTRTAPLIATSSAHRLVHSGPSKGSVPYDAELSFALRTGTRHGVDTHLFSVESPQELAAWTRQLVDGCHRAAEGIQEVSTACTWNGRPCSLSVHIDKGFTLWAAEPGAARAMLLRQPFEKLQMSSDDGTSLLFLDFGGAEGEIQLDLHSCPKTMVFIIHSFLSAKVTRLGLLA
B4: β-dystroglycan (protein, UniProt Q62165 652-893)
chain: SIVVEWTNNTLPLEPCPKEQIIGLSRRIADENGKPRPAFSNALEPDFKALSIAVTGSGSCRHLQFIPVAPPSPGSSAAPATEVPDRDPEKSSEDDVYLHTVIPAVVVAAILLIAGIIAMICYRKKRKGKLTLEDQATFIKKGVPIIFADELDDSKPPPSSSMPLILQEEKAPLPPPEYPNQSMPETTPLNQDTVGEYTPLRDEDPNAPPYQPPPPFTAPMEGKGSRPKNMTPYRSPPPYVPP
modifications: glycosylated form detected (glycosylated β-dystroglycan)
B5: caveolin-3 (protein, UniProt P51637 1-151)
chain: MMTEEHTDLEARIIKDIHCKEIDLVNRDPKNINEDIVKVDFEDVIAEPEGTYSFDGVWKVSFTTFTVSKYWCYRLLSTLLGVPLALLWGFLFACISFCHIWAVVPCIKSYLIEIQCISHIYSLCIRTFCNPLFAALGQVCSNIKVVLRREG

Molecular target: T1, 6His-plakoglobin
Experiment: affinity purification with mass spectrometry; 6His-plakoglobin electroporated into mouse TA muscle, whole-cell extracts on Ni beads, histidine gradient, fraction #2 analysed by mass spectrometry

binding, binds:
β-syntrophin
vinculin (from UniProt Q64727 1-1066)
catalytic subunit of PI3K, gamma (from UniProt Q9JHG7 1-1102) (enzyme)
p85 regulatory subunit of PI3K
caveolin-1 (from UniProt P49817 1-178)
insulin-like growth factor 2 receptor (from UniProt Q07113 36-2483)
insulin-like growth factor-binding protein
catalytic subunit of PI3K, type 3 (from UniProt Q6PF93 1-887) (enzyme)
dystrophin (from UniProt P11531 1-3678)
insulin receptor substrate 1 (from UniProt P35569 1-1233)
B1
B2
B3
B4
B5
